“And” between values parts separate entries of the source, which are not always exact repeats. Equal entries are not always repeated. Some of the results follow.
Key:
Test in all cases: protein microarray (ProtoArray v5.0), streptavidin-Alexa Fluor 647
Settings in all cases: 3'-biotin; 20 mM Tris (pH 7.5), 5 mM MgCl2, 100 mM KCl, 0.1% Tween-20, A/T-rich and random oligonucleotide blockers; temperature not stated; high values mean tight binding
SART3 (human) = tested on: SART3 (human)
SASP (human) = tested on: SASP (human)
SAT2 (human) = tested on: SAT2 (human)
SCAMP1 (human) = tested on: SCAMP1 (human)
SCAMP2 (human) = tested on: SCAMP2 (human)
SCAMP3 (human) = tested on: SCAMP3 (human)
SCAMP4 (human) = tested on: SCAMP4 (human)
SCAND2 (human) = tested on: SCAND2 (human)
SCFD1 (human) = tested on: SCFD1 (human)
SCG3 (human) = tested on: SCG3 (human)

For “GGGAGGCTGAGGCAGG [G4-1 biotinylated (PQS2)]”, the binding signal (SART3 (human)) was -0.317 z-score, the binding signal (SASP (human)) was -0.308 z-score and the binding signal (SAT2 (human)) was -0.307 z-score. For the same sequence, the binding signal (SCAMP1 (human)) was -0.315 z-score, the binding signal (SCAMP2 (human)) was -0.274 z-score and the binding signal (SCAMP3 (human)) was -0.324 z-score and -0.278 z-score. It also gave a binding signal (SCAMP4 (human)) of -0.293 z-score, a binding signal (SCAND2 (human)) of -0.306 z-score and a binding signal (SCFD1 (human)) of -0.273 z-score. It also gave a binding signal (SCG3 (human)) of -0.324 z-score.

Reference: article PMC5996148
